Laboratory results as given in patent US7888090B2, “Mutants of O6-alkylguanine-DNA alkyltransferase” (Ecole Polytechnique Federale de Lausanne, priority 2004, dated 2011).

Experiment: Periplasmic expression / stability under oxidizing conditions
Design: species or system E. coli
Settings: compared to PGEA-hAGT
Procedure: The activities towards AGT substrates are measured after purification without addition of reducing agents such as dithiothreitol or beta-mercaptoethanol. Alternatively, the activities of mutant AGT and wild type human are compared after their export into cellular compartments with oxidising redox potential (e.g. the periplasm of E. coli due to their fusion to appropriate signal sequences. Activity towards AGT substrates under reducing and oxidising conditions is compared by performing the reactions in the presence or absence of reducing agents such as dithiothreitol or beta-mercaptoethanol.
The mutant AGT gene of Example 1 is amplified and cloned as described in Example 1 with the oligonucleotides SEQ ID NO:3, SEQ ID NO:10 and SEQ ID NO:4, SEQ ID NO:9 causing the further mutation Cys62Ala in the gene upon their incorporation by PCR. Protein expression, purification and determination of yield is carried out as described in Example 1. […] The supernatant is directly subjected to quantification of protein yield via SDS-PAGE and activity assays as described in Example 1.
Stability under oxidizing conditions: The mutant gene is PCR amplified with the primers SEQ ID NO:11 and SEQ ID NO:28 to subclone the gene into pAK100, as described in Example 2. […] The anti-FLAG IgG antibody is used to estimate the total amount of soluble AGT protein, whereas neutravidin quantifies the reactive portion of it. […]

B1: AGTM: AGT mutant Cys62Ala, Gln115Ser, Gln116His, Lys125Ala, Ala127Thr, Arg128Ala, Gly131Lys, Gly132Thr, Met134Leu, Arg135Ser, Cys150Asn, Ser151Ile, Ser152Asn, Asn157Gly, Ser159Glu, truncated after … (protein, UniProt P16455 1-207, looked up, variant C62A Q115S Q116H K125A A127T R128A G131K G132T M134L R135S C150N S151I S152N N157G S159E del183-207)
Methylated-DNA--protein-cystei …: MDKDCEMKRTTLDSPLGKLELSGCEQGLHEIKLLGKGTSAADAVEVPAPAAVLGGPEPLMQATAWLNAYFHQPEAIEEFPVPALHHPVFQQESFTRQVLWKLLKVVKFGEVISYSHLAALAGNPAATAAVKTALSGNPVPILIPCHRVVNINGAVGGYEGGLAVKEWLLAHEGHRLGKPGLG
modifications: His tag
- amount of protein from periplasmic expression: two to threefold more
